This note sets out measurements from article PMC10141581.

Chains of the proteins cited; added tags and fusions are not shown.
UniProt Q96SW2: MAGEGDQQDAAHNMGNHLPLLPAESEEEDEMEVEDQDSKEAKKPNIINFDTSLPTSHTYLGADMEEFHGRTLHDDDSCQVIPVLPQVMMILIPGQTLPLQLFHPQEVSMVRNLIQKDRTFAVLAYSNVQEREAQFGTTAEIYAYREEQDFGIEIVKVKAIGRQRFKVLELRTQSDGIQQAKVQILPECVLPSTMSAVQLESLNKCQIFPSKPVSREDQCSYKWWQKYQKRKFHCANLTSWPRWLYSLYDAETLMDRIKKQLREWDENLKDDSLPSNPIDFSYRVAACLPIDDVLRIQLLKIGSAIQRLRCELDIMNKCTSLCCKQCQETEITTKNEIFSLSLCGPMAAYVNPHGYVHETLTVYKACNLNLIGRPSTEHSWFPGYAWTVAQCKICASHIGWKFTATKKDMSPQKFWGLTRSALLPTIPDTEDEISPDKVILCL
UniProt P63104: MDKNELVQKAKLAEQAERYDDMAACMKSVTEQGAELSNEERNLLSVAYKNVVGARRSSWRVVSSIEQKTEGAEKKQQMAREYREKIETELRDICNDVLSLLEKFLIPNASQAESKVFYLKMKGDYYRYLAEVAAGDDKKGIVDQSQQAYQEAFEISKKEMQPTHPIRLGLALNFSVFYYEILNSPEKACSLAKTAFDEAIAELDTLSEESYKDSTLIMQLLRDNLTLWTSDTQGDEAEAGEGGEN

The target in the assay is FLAG-CRBN (human) (UniProt Q96SW2). In words: co-IP; 20 μM purified Myc-14-3-3ζ added to lysate of HEK293T cells expressing FLAG-CRBN (Calyculin A, no phosphatase), 1 h; ANTI-FLAG M2 affinity gel; 50 mM Tris pH 7.5, 150 mM NaCl; Western blot with α-FLAG and α-myc; only the binder purified. A general note: In western blotting, separated proteins are transferred to a membrane and probed.

These are yes or no findings as the source states them, for the method shown. Binding seen in cells or lysates may run through a third protein.

With “myc-14-3-3ζ WT (from UniProt P63104 1-245)”, the binding result is “no binding (tested: 20 μM)”.
